According to publication PMC8238200:
No constants are given. Whether binding was seen depends on the method and setting.

Amino acid sequences for entries named in this document (tags omitted). Residues count along the entry.
UniProt B7UNX3: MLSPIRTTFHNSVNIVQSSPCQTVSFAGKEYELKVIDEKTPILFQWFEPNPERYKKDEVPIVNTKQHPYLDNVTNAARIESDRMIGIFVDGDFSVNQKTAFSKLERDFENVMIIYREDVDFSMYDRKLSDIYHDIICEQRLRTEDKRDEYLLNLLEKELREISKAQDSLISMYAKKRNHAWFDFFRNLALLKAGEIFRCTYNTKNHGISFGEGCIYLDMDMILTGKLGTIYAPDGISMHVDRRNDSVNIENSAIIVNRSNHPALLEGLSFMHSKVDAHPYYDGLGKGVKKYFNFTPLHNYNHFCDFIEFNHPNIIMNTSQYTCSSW
UniProt Q13158, residues 97-181: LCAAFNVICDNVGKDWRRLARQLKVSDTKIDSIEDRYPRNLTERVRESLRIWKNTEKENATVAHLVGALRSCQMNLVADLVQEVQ
UniProt P25445, residues 230-314: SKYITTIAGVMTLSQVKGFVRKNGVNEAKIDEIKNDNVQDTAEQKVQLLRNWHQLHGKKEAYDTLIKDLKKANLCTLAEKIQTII

B1: Death domain of TRADD (domain or fragment, UniProt Q15628 179-289)
chain: PLQPPVPSLSEVKPPPPPPPAQTFLFQGQPVVNRPLSLKDQQTFARSVGLKWRKVGRSLQRGCRALRDPALDSLAYEYEREGLYEQAFQLLRRFVQAEGRRATLQRLVEAL

Biological target: NleB2 from EPEC E2348/69 (pGBKT7-NleB2) (enteropathogenic Escherichia coli O127:H6 strain E2348/69) (UniProt B7UNX3)
Experiment: two-hybrid; pairwise yeast two-hybrid, data not shown

Molecule	binding
Death domain of FADD (from UniProt Q13158 97-181) (domain or fragment)	no binding
Death domain of FAS (from UniProt P25445 230-314) (domain or fragment)	no binding
B1	no binding
